From paper doi:10.1101/388728
The exact form of at least one protein or probe is not confirmed. A negative result means that nothing was seen under these conditions.

Test system: AmtR (Mycobacterium smegmatis)
Experiment: pull-down

ACGACAUUAUAUGGUCGGA [RNA oligo 1]: no binding.
